Assay results published in the supplement of paper PMC6411743.
± gives the standard deviation of the averaged measurements. The entries are a selection whose mix differs from that of the whole data set.

Sequences of proteins named here, by UniProt entry; tags and fusion partners are left off. A change or cut given only in a name is not applied to a line headed by its entry.
UniProt Q9UNM6: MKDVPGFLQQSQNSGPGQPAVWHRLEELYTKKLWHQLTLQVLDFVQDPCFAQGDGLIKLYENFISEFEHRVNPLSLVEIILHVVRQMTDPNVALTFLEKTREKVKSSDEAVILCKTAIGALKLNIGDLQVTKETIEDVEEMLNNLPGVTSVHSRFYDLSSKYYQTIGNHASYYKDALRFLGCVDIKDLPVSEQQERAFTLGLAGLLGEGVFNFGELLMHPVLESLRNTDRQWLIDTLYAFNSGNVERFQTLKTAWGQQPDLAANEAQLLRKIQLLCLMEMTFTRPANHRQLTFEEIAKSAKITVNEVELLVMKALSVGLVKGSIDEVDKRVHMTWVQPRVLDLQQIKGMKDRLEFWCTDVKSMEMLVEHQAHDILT
UniProt Q9UDY2: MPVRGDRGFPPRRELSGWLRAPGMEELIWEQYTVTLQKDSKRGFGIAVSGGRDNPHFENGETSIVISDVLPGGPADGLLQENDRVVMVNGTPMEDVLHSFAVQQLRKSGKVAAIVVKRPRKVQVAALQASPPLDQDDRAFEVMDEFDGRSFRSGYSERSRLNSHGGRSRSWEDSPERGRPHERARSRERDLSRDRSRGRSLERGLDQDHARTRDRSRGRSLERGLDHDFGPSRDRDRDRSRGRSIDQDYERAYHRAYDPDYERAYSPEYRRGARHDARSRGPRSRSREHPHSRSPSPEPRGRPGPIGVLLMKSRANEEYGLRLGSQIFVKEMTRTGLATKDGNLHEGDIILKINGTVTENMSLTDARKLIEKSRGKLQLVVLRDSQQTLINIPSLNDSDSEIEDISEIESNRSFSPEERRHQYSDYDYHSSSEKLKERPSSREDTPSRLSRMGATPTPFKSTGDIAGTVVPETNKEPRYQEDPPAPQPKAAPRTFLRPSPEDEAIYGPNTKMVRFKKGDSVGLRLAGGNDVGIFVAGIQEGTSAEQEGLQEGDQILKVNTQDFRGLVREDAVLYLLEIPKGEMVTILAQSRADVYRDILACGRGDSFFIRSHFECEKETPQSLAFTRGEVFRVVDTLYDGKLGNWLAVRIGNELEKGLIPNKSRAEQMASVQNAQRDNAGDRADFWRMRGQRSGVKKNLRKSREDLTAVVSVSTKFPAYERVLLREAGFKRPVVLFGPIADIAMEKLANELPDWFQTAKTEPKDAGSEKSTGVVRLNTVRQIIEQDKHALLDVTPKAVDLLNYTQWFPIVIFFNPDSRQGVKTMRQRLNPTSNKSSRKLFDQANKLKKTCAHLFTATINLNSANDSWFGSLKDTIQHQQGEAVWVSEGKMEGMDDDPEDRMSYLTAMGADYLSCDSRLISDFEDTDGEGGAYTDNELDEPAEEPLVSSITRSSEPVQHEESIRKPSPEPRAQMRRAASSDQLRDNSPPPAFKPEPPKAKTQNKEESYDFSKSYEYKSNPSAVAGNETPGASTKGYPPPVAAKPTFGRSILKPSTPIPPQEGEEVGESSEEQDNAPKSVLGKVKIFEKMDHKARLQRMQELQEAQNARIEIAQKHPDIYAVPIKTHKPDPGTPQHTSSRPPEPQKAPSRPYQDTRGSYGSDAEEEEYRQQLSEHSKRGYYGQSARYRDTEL
UniProt Q9Y2Y0: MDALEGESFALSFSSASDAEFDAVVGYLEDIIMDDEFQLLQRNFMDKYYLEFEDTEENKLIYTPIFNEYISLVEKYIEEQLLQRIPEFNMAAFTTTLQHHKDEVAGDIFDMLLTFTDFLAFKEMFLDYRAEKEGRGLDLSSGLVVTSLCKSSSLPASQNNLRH
UniProt Q9UHA4, whole entry: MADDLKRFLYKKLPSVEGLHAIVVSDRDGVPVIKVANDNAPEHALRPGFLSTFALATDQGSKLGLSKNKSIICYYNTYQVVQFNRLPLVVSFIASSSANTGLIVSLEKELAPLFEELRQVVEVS
UniProt Q9Y237, whole entry: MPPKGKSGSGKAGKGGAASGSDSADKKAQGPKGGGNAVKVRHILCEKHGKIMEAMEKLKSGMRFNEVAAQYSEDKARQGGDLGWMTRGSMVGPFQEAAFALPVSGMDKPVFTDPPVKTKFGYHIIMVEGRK
UniProt Q9UKW4: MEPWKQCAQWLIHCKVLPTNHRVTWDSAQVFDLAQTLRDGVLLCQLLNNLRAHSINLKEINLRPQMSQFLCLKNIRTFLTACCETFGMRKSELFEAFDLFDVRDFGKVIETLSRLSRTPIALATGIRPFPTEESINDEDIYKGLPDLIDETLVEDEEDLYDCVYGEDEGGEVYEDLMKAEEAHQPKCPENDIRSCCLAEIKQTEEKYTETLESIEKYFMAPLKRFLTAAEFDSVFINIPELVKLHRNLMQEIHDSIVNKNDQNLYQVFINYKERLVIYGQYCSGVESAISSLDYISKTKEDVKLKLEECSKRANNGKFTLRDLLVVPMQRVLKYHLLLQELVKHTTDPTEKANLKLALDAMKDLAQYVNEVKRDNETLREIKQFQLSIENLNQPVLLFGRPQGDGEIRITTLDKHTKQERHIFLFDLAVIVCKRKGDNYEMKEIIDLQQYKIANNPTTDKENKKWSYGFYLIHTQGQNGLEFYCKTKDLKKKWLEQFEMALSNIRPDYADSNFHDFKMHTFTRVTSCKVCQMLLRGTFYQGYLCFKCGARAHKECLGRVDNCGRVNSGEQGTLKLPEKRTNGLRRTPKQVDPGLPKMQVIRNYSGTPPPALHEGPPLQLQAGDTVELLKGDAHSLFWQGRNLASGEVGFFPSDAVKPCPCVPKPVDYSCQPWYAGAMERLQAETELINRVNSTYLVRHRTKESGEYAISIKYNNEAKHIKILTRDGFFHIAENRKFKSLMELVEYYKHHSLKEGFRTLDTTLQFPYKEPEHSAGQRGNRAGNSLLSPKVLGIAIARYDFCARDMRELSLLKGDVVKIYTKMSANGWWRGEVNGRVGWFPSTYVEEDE
UniProt Q9Y2X9: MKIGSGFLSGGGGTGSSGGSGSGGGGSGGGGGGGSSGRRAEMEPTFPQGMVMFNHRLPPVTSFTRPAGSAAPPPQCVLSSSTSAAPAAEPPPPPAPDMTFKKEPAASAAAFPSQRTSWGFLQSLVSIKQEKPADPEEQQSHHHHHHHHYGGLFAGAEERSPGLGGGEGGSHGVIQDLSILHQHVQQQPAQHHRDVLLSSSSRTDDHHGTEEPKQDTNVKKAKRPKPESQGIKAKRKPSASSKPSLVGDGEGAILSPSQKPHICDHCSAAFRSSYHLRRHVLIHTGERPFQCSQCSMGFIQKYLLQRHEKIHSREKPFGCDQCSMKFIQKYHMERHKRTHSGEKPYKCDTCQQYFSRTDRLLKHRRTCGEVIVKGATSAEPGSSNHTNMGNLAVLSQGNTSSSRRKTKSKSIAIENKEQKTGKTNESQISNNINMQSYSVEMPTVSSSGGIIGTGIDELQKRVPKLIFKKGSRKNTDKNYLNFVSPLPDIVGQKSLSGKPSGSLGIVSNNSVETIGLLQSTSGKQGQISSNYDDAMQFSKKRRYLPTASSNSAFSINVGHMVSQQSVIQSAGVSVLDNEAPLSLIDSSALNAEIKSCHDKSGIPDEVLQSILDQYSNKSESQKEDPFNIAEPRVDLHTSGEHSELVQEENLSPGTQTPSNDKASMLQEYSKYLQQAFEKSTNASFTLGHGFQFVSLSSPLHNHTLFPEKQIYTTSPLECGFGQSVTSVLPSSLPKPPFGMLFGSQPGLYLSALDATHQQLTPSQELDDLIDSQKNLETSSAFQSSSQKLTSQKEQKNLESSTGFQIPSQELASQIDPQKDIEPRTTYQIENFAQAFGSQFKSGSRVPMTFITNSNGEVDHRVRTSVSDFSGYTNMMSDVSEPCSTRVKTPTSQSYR
UniProt Q9UKL6: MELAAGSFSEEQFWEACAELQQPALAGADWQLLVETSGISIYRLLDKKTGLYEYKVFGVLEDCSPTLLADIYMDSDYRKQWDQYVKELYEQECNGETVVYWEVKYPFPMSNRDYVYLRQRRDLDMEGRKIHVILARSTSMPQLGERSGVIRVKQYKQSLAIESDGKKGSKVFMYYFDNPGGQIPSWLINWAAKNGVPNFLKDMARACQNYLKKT
UniProt Q9UNS2: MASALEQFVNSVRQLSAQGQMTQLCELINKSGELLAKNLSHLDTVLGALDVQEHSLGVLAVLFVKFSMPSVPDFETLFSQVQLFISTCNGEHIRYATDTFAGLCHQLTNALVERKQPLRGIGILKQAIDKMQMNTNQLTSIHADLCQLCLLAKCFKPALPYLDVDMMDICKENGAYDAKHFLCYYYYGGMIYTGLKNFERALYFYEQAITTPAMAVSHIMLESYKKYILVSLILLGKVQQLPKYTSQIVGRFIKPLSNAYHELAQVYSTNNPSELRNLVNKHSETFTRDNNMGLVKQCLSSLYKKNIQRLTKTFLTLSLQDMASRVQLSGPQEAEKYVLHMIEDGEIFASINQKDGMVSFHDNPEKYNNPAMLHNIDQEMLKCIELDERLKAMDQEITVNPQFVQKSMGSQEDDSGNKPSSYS
UniProt Q9Y3B4: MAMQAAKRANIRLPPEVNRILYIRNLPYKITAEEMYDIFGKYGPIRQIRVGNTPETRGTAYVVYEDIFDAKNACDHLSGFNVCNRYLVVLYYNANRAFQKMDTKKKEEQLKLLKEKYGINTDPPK
UniProt Q9UJ83: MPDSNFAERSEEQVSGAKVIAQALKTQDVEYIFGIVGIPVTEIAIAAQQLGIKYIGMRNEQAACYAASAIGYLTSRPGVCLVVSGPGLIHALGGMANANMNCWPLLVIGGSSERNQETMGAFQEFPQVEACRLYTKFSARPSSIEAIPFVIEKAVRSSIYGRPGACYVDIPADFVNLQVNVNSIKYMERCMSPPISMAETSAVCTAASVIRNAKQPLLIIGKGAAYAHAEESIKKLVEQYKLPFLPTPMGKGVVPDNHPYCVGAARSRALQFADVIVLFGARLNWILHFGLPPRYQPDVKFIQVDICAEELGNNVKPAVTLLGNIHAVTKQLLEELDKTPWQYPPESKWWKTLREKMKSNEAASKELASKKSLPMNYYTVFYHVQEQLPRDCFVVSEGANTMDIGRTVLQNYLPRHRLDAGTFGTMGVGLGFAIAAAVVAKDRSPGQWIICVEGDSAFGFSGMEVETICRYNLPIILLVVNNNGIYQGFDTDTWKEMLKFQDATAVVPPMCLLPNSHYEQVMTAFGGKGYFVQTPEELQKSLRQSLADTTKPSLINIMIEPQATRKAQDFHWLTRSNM
UniProt Q9UEY8: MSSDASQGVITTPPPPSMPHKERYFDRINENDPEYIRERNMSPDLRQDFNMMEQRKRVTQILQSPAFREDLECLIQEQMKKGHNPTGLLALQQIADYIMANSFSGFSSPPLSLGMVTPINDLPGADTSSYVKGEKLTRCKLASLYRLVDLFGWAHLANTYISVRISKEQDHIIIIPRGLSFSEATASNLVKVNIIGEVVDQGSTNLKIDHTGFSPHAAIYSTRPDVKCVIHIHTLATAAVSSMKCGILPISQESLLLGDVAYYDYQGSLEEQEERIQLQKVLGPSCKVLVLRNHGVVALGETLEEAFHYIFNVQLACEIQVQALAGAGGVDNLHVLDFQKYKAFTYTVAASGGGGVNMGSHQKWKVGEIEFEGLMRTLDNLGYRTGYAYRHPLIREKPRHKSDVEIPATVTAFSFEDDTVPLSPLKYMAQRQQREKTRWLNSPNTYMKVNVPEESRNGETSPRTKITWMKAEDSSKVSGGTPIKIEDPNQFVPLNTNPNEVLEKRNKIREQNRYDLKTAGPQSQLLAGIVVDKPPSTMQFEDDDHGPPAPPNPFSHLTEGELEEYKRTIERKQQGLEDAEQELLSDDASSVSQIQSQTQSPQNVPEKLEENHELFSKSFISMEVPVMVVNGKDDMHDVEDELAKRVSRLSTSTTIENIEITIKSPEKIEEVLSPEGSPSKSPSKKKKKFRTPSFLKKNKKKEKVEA
UniProt Q9UH03, whole entry: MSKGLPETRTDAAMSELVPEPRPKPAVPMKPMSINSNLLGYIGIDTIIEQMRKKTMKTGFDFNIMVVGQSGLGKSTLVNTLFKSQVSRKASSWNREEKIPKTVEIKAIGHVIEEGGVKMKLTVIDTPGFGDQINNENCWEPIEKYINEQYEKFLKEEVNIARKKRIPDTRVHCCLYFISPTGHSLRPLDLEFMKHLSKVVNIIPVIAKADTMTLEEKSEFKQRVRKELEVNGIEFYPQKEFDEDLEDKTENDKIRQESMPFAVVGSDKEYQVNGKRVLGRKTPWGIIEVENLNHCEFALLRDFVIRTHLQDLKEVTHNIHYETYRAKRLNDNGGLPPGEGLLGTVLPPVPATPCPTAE
UniProt Q9Y2H1: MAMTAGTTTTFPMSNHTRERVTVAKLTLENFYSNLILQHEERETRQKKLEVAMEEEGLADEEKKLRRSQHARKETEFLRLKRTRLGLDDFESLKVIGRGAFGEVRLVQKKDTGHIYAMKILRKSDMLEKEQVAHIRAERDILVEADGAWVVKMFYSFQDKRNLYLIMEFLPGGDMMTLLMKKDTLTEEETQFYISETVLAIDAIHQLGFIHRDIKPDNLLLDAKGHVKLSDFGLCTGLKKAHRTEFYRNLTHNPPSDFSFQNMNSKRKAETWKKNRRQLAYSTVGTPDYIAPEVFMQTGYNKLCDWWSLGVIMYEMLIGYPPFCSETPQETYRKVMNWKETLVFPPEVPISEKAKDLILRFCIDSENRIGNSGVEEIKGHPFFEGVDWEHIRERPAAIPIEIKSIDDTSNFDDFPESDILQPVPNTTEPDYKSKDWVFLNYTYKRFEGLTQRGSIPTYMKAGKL

Compound: Nc1ncnc2c1ncn2[C@@H]1O[C@H](COP(=O)(O)OP(=O)(O)NP(=O)(O)O)[C@@H](O)[C@H]1O [adenylyl imidodiphosphate]
Assay: NP40-soluble protein abundance relative to vehicle (solubility fold change) (ratio); higher = more soluble protein in presence of AMP-PNP
Outline: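 Values are fold changes against the detergent-processed vehicle, based on vsn-normalised intensities. Jurkat crude lysate was treated at eight concentrations from 0.1 to 10 mM (10 min at room temperature, then 3 min at 37 °C), solubilised with 0.8% NP40 and benzonase, ultracentrifuged and analysed by TMT-labelled LC-MS/MS over three independent experiments.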

Target	NP40-soluble protein abundance (concentration: 1mM)	NP40-soluble protein abundance (concentration: 2mM)	NP40-soluble protein abundance (concentration: 4mM)	NP40-soluble protein abundance (concentration: 6mM)	NP40-soluble protein abundance (concentration: 8mM)	NP40-soluble protein abundance (concentration: 10mM)
PPIL1 (UniProt Q9Y3C6)	0.979 ± 0.012	0.987 ± 0.015	0.98 ± 0.0096	1.06 ± 0.075	1.05 ± 0.037	1.05 ± 0.051
UniProt Q9ULI0 and related entries	1.057 ± 0.0048	1.09 ± 0.013	1.08 ± 0.036	1.175 ± 0.0053	1.161 ± 0.0039	1.23 ± 0.015
AKAP11 (UniProt Q9UKA4)	0.979 ± 0.06	0.986 ± 0.015	0.982 ± 0.036	0.984 ± 0.066	0.968 ± 0.028	0.992 ± 0.075
UniProt Q9UNM6 and related entries	0.902 ± 0.0098	0.817 ± 0.056	0.868 ± 0.068	0.885 ± 0.053	0.892 ± 0.074	0.841 ± 0.095
UniProt Q9UDY2 and related entries	1.02 ± 0.017	1.03 ± 0.043	1.02 ± 0.036	1.03 ± 0.065	1.04 ± 0.059	1.02 ± 0.054
DIS3 (UniProt Q9Y2L1)	0.987 ± 0.034	0.923 ± 0.071	0.97 ± 0.015	0.9496 ± 0.0077	0.966 ± 0.022	0.91 ± 0.016
UniProt Q9Y2Y0 and related entries	0.982 ± 0.014	0.972 ± 0.026	0.989 ± 0.036	0.988 ± 0.049	0.975 ± 0.032	0.953 ± 0.015
RCL1 (UniProt Q9Y2P8)	0.9923 ± 0.0056	0.892 ± 0.078	0.97 ± 0.011	1.02 ± 0.029	1.04 ± 0.019	0.968 ± 0.055
UniProt Q9UHA4	1.04 ± 0.022	1.01 ± 0.03	1 ± 0.016	0.96 ± 0.014	1.02 ± 0.015	0.999 ± 0.029
UniProt Q9Y237 and related entries	1.02 ± 0.019	1.1 ± 0.12	1.04 ± 0.033	1.08 ± 0.02	1.075 ± 0.01	1.1 ± 0.038
WARS2 (UniProt Q9UGM6)	1.014 ± 0.0083	1.02 ± 0.03	1.06 ± 0.013	1.1 ± 0.036	1.06 ± 0.038	1.07 ± 0.025
WBP11 (UniProt Q9Y2W2)	1.05 ± 0.019	1.15 ± 0.13	1.1 ± 0.032	1.15 ± 0.048	1.14 ± 0.024	1.23 ± 0.048
UniProt Q9Y2I7	0.978 ± 0.018	0.9781 ± 0.0019	0.993 ± 0.037	0.974 ± 0.017	0.958 ± 0.019	0.976 ± 0.034
UniProt Q9UKW4 and related entries	0.985 ± 0.01	0.955 ± 0.086	0.974 ± 0.023	0.958 ± 0.026	0.981 ± 0.023	0.964 ± 0.034
UniProt Q9Y2X9 and related entries	1 ± 0.043	0.999 ± 0.033	0.973 ± 0.046	0.965 ± 0.022	0.947 ± 0.015	0.984 ± 0.026
UniProt Q9UEW8 and related entries	1.03 ± 0.066	1.05 ± 0.035	0.999 ± 0.033	1.04 ± 0.057	0.992 ± 0.06	1.03 ± 0.046
UniProt Q9UKL6 and related entries	0.986 ± 0.033	0.962 ± 0.03	0.977 ± 0.014	1.003 ± 0.0098	0.9804 ± 0.0094	1.01 ± 0.051
COPS3 (UniProt Q9UNS2)	0.996 ± 0.016	1.02 ± 0.071	0.999 ± 0.044	1.04 ± 0.051	1.02 ± 0.053	1.03 ± 0.088
UniProt Q9Y3B4	0.976 ± 0.061	0.981 ± 0.076	0.993 ± 0.019	0.968 ± 0.016	1.05 ± 0.051	1.01 ± 0.06
UniProt Q9UJ83 and related entries	0.961 ± 0.018	0.908 ± 0.09	0.946 ± 0.017	0.927 ± 0.029	0.941 ± 0.031	0.918 ± 0.0021
UniProt Q9Y3B2 and related entries	0.985 ± 0.045	1.02 ± 0.053	1.01 ± 0.077	1.13 ± 0.076	1.1 ± 0.092	1.12 ± 0.14
NUDC (UniProt Q9Y266)	1.03 ± 0.022	1.04 ± 0.084	0.989 ± 0.059	1.03 ± 0.04	1 ± 0.055	1 ± 0.075
ADD3 (UniProt Q9UEY8)	0.998 ± 0.032	0.976 ± 0.052	1.01 ± 0.018	0.9833 ± 0.0087	1.01 ± 0.013	0.993 ± 0.019
UniProt Q9UH03 and related entries	1.01 ± 0.036	0.992 ± 0.029	0.987 ± 0.027	0.981 ± 0.012	0.981 ± 0.023	0.99 ± 0.023
UniProt Q9UHB9 and related entries	1.02 ± 0.015	1.03 ± 0.012	0.996 ± 0.1	1.06 ± 0.076	1.09 ± 0.032	1.1 ± 0.015
UniProt Q9UK53-2|A0A0C4DFW2|Q9UK53 and related entries	1.04 ± 0.081	1.03 ± 0.039	1.04 ± 0.11	1.03 ± 0.084	1.06 ± 0.1	1.04 ± 0.063
UniProt Q9Y2H1	1.02 ± 0.014	0.956 ± 0.09	0.993 ± 0.015	0.996 ± 0.016	0.997 ± 0.021	0.972 ± 0.038
UniProt Q9Y2X0-2|Q9Y2X0-3|Q9Y2X0	0.928 ± 0.029	0.913 ± 0.071	0.924 ± 0.06	0.927 ± 0.044	0.953 ± 0.056	0.913 ± 0.089
CFDP1 (UniProt Q9UEE9)	1.084 ± 0.0092	1.14 ± 0.11	1.04 ± 0.034	1.04 ± 0.045	0.96 ± 0.013	1.04 ± 0.084
UniProt Q9UG63 and related entries	1.04 ± 0.06	1.15 ± 0.065	1.41 ± 0.054	1.82 ± 0.11	2.25 ± 0.15	2.54 ± 0.26

A different layout for some results above:
Target,NP40-soluble protein abundance (concentration: 1mM),NP40-soluble protein abundance (concentration: 2mM),NP40-soluble protein abundance (concentration: 4mM),NP40-soluble protein abundance (concentration: 6mM),NP40-soluble protein abundance (concentration: 8mM),NP40-soluble protein abundance (concentration: 10mM)
UniProt Q9Y2Y0 and related entries,0.982 ± 0.014,0.972 ± 0.026,0.989 ± 0.036,0.988 ± 0.049,0.975 ± 0.032,0.953 ± 0.015
RCL1 (UniProt Q9Y2P8),0.9923 ± 0.0056,0.892 ± 0.078,0.97 ± 0.011,1.02 ± 0.029,1.04 ± 0.019,0.968 ± 0.055
UniProt Q9UHA4,1.04 ± 0.022,1.01 ± 0.03,1 ± 0.016,0.96 ± 0.014,1.02 ± 0.015,0.999 ± 0.029
UniProt Q9Y237 and related entries,1.02 ± 0.019,1.1 ± 0.12,1.04 ± 0.033,1.08 ± 0.02,1.075 ± 0.01,1.1 ± 0.038
WARS2 (UniProt Q9UGM6),1.014 ± 0.0083,1.02 ± 0.03,1.06 ± 0.013,1.1 ± 0.036,1.06 ± 0.038,1.07 ± 0.025
WBP11 (UniProt Q9Y2W2),1.05 ± 0.019,1.15 ± 0.13,1.1 ± 0.032,1.15 ± 0.048,1.14 ± 0.024,1.23 ± 0.048
UniProt Q9Y2I7,0.978 ± 0.018,0.9781 ± 0.0019,0.993 ± 0.037,0.974 ± 0.017,0.958 ± 0.019,0.976 ± 0.034
UniProt Q9UKW4 and related entries,0.985 ± 0.01,0.955 ± 0.086,0.974 ± 0.023,0.958 ± 0.026,0.981 ± 0.023,0.964 ± 0.034
UniProt Q9Y2X9 and related entries,1 ± 0.043,0.999 ± 0.033,0.973 ± 0.046,0.965 ± 0.022,0.947 ± 0.015,0.984 ± 0.026
